Assay results from US20230256019A1.
These are yes or no findings as the source states them, for the method shown. Some binding calls cover weakened binding; strength is not graded here.

The chains behind the UniProt entries cited, without tags or fusion partners. Residues count along the entry.
UniProt O76036, residues 22-304: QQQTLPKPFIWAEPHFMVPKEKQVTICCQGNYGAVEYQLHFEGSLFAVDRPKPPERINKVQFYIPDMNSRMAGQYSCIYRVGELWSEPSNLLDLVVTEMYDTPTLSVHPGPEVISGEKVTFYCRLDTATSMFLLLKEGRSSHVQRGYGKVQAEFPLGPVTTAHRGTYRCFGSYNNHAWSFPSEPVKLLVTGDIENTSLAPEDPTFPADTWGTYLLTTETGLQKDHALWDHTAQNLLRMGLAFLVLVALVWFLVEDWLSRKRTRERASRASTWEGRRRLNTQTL

Assays:
[1] = biological target: NKp46 on highly active NK cells GAIA-102 (human) (UniProt O76036); assay: flow cytometry on GAIA-102 NK cells, PE anti-human IgG (FIG. 8 legend)
[2] = biological target: NKp46 on highly active NK cells GAIA-102 (human) (UniProt O76036); assay: flow cytometry on GAIA-102 NK cells, PE anti-human IgG; 13.3 µg/mL prototype substance, 1 µg/mL antibody drug
[3] = biological target: NKp46 on highly active NK cells GAIA-102 (human) (UniProt O76036); assay: flow cytometry on GAIA-102 NK cells, PE anti-human IgG; 350 µg/mL prototype substance, 1 µg/mL Herceptin

Measured: binding

B1: prototype substance (pG2-NKp46) (designed binder)
chain: TYKLVINGKTLKGETTTEAVDAATAEKVFKQYANDNGVDGEWTYDDATKTFTVTEKPEVIDASELTPAVTTYKLVINGKTLKGETTTKAVDAETAEKAFKQYANDNGVDGVWTYDDATKTFTVTEGGGGSGGGGSGGGGSSTGSEVQLQQSGPELVKPGASVKISCKTSGYTFTEYTMHWVKQSHGKSLEWIGGISPNIGGTSYNQKFKGKATLTVDKSSSTAYMELRSLTSEDSAVYYCARRGGSFDYWGQGTTLTVSSVEGGSGGSGGSGGSGGVDDIVMTQSPATLSVTPGDRVSLSCRASQSISDYLHWYQQKSHESPRLLIKYASQSISGIPSRFSGSGSGSDFTLSINSVEPEDVGVYYCQNGHSFPLTFGAGTKLELKENLYFQGHHHHHHWSHPQFEKHHHHHH
binds: all assays above
